In publication PMC6115435:
Results are given in words; binding and its absence hold for the method and conditions named. In cells and extracts the contact can be indirect.

By UniProt entry, the sequences of proteins in these tests, tags left out.
UniProt Q86WV6: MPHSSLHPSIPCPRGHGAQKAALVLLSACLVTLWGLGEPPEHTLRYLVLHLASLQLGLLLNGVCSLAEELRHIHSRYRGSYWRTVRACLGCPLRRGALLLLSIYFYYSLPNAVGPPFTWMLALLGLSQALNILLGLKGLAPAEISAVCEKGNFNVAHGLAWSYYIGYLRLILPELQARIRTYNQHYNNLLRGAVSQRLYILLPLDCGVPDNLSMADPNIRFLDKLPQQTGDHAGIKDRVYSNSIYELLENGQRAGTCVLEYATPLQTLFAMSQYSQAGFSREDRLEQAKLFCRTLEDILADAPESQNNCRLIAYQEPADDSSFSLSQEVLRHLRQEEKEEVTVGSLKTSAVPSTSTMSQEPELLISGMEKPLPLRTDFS

Target: STING (STimulator of INterferon Genes) (human) (UniProt Q86WV6)
Experiment: co-IP; HEK293T cells transfected with overexpression plasmids (results: HEK293 with STING and Nrf2 overexpressed); Pierce IP lysis buffer; cleared lysates incubated overnight at 4 °C with an antibody against STING, then protein G Dynabeads for 2 h at 4 °C; glycine elution pH 2.5; western blotting

B1: Nrf2 (Nuclear factor (erythroid-derived 2)-like 2) (protein, UniProt Q16236 1-605)
chain: MMDLELPPPGLPSQQDMDLIDILWRQDIDLGVSREVFDFSQRRKEYELEKQKKLEKERQEQLQKEQEKAFFAQLQLDEETGEFLPIQPAQHIQSETSGSANYSQVAHIPKSDALYFDDCMQLLAQTFPFVDDNEVSSATFQSLVPDIPGHIESPVFIATNQAQSPETSVAQVAPVDLDGMQQDIEQVWEELLSIPELQCLNIENDKLVETTMVPSPEAKLTEVDNYHFYSSIPSMEKEVGNCSPHFLNAFEDSFSSILSTEDPNQLTVNSLNSDATVNTDFGDEFYSAFIAEPSISNSMPSPATLSHSLSELLNGPIDVSDLSLCKAFNQNHPESTAEFNDSDSGISLNTSPSVASPEHSVESSSYGDTLLGLSDSEVEELDSAPGSVKQNGPKTPVHSSGDMVQPLSPSQGQSTHVHDAQCENTPEKELPVSPGHRKTPFTKDKHSSRLEAHLTRDELRAKALHIPFPVEKIINLPVVDFNEMMSKEQFNEAQLALIRDIRRRGKNKVAAQNCRKRKLENIVELEQDLDHLKDEKEKLLKEKGENDKSLHLLKKQLSTLYLEVFSMLRDEDGKPYSPSEYSLQQTRDGNVFLVPKSKKPDVKKN
binding: no binding
